# The other results are listed elsewhere or left out.
# Experiments:
# Assay in all cases: glycan array binding signal (z-score within array); higher = stronger binding
# Settings in all cases: glycan notation: IUPAC condensed, linker removed
# [1] = target: Man(a1-2)Man(a1-3)[Man(a1-6)]Man(a1-6)[Man(a1-2)Man(a1-3)]Man(b1-4)GlcNAc(b1-4)GlcNAc
# Procedure, shortened: (§1)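 Glycan array binding is given as a within-array Z-score, which can be read as non-binding when negative. The arrays, 3228 of them, came from the Consortium for Functional Glycomics database and were retained only where the protein sequence was available. Z-scores were averaged across arrays of the same protein sequence at different concentrations or buffers and across linkers.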
# [2] = target: Man(a1-2)Man(a1-6)[Man(a1-3)]Man(a1-6)[Man(a1-2)Man(a1-2)Man(a1-3)]Man
# Procedure, shortened: as §1
# [3] = target: Man(a1-2)Man(a1-6)[Man(a1-3)]Man(a1-6)[Man(a1-2)Man(a1-2)Man(a1-3)]Man(b1-4)GlcNAc(b1-4)GlcNAc
# Procedure, shortened: as §1
# Man(a1-3)[Man(a1-6)]Man = target: Man(a1-3)[Man(a1-6)]Man
# Procedure, shortened: as §1
# [4] = target: Man(a1-3)[Man(a1-6)]Man(a1-6)[Man(a1-2)Man(a1-3)]Man(b1-4)GlcNAc(b1-4)GlcNAc
# Procedure, shortened: as §1
# [5] = target: Man(a1-3)[Man(a1-6)]Man(a1-6)[Man(a1-3)]Man
# Procedure, shortened: as §1
# [6] = target: Man(a1-3)[Man(a1-6)]Man(a1-6)[Man(a1-3)]Man(b1-4)GlcNAc(b1-4)GlcNAc
# Procedure, shortened: as §1
# [7] = target: Man(a1-3)[Man(a1-6)]Man(b1-4)GlcNAc(b1-4)GlcNAc
# Procedure, shortened: as §1
# Man(a1-6)Man = target: Man(a1-6)Man
# Procedure, shortened: as §1
# Man(b1-4)GlcNAc = target: Man(b1-4)GlcNAc
# Procedure, shortened: as §1
# Neu5Ac(a2-3)Gal = target: Neu5Ac(a2-3)Gal
# Procedure, shortened: as §1
# [8] = target: Neu5Ac(a2-3)Gal(b1-3)GalNAc
# Procedure, shortened: as §1
# [9] = target: Neu5Ac(a2-3)Gal(b1-3)GalNAc(b1-3)Gal(a1-4)Gal(b1-4)Glc
# Procedure, shortened: as §1
# [10] = target: Neu5Ac(a2-3)Gal(b1-3)GalNAc(b1-4)[Neu5Ac(a2-3)]Gal(b1-4)Glc
# Procedure, shortened: as §1
# [11] = target: Neu5Ac(a2-3)Gal(b1-3)GalNAc(b1-4)[Neu5Ac(a2-8)Neu5Ac(a2-3)]Gal(b1-4)Glc
# Procedure, shortened: as §1
# [12] = target: Neu5Ac(a2-3)Gal(b1-3)GalNAc6S
# Procedure, shortened: as §1
# [13] = target: Neu5Ac(a2-3)Gal(b1-3)GlcNAc
# Procedure, shortened: as §1
# [14] = target: Neu5Ac(a2-3)Gal(b1-3)GlcNAc(b1-3)Gal(b1-3)GlcNAc
# Procedure, shortened: as §1
# [15] = target: Neu5Ac(a2-3)Gal(b1-3)GlcNAc(b1-3)Gal(b1-4)GlcNAc
# Procedure, shortened: as §1
# [16] = target: Neu5Ac(a2-3)Gal(b1-3)GlcNAc(b1-3)GalNAc
# Procedure, shortened: as §1
# [17] = target: Neu5Ac(a2-3)Gal(b1-3)GlcNAc6S
# Procedure, shortened: as §1
# [18] = target: Neu5Ac(a2-3)Gal(b1-3)[Fuc(a1-4)]GlcNAc
# Procedure, shortened: as §1
# [19] = target: Neu5Ac(a2-3)Gal(b1-3)[Fuc(a1-4)]GlcNAc(b1-3)Gal(b1-3)[Fuc(a1-4)]GlcNAc
# Procedure, shortened: as §1
# [20] = target: Neu5Ac(a2-3)Gal(b1-3)[Fuc(a1-4)]GlcNAc(b1-3)Gal(b1-4)[Fuc(a1-3)]GlcNAc
# Procedure, shortened: as §1
# [21] = target: Neu5Ac(a2-3)Gal(b1-3)[Neu5Ac(a2-3)Gal(b1-4)]GlcNAc
# Procedure, shortened: as §1
# [22] = target: Neu5Ac(a2-3)Gal(b1-3)[Neu5Ac(a2-6)]GalNAc
# Procedure, shortened: as §1
# Neu5Ac(a2-3)Gal(b1-4)Glc = target: Neu5Ac(a2-3)Gal(b1-4)Glc
# Procedure, shortened: as §1
# [23] = target: Neu5Ac(a2-3)Gal(b1-4)GlcNAc
# Procedure, shortened: as §1
# [24] = target: Neu5Ac(a2-3)Gal(b1-4)GlcNAc(b1-2)Man(a1-3)[GlcNAc(b1-2)Man(b1-4)GlcNAc(b1-2)Man(a1-6)]Man(b1-4)GlcNAc(b1-4)GlcNAc
# Procedure, shortened: as §1
# [25] = target: Neu5Ac(a2-3)Gal(b1-4)GlcNAc(b1-2)Man(a1-3)[Neu5Ac(a2-6)Gal(b1-4)GlcNAc(b1-2)Man(a1-6)]Man(b1-4)GlcNAc(b1-4)GlcNAc
# Procedure, shortened: as §1
# [26] = target: Neu5Ac(a2-3)Gal(b1-4)GlcNAc(b1-3)Gal
# Procedure, shortened: as §1
# [27] = target: Neu5Ac(a2-3)Gal(b1-4)GlcNAc(b1-3)Gal(b1-3)GlcNAc
# Procedure, shortened: as §1
# [28] = target: Neu5Ac(a2-3)Gal(b1-4)GlcNAc(b1-3)Gal(b1-4)GlcNAc
# Procedure, shortened: as §1
# [29] = target: Neu5Ac(a2-3)Gal(b1-4)GlcNAc(b1-3)Gal(b1-4)GlcNAc(b1-3)Gal(b1-4)GlcNAc
# Procedure, shortened: as §1
# [30] = target: Neu5Ac(a2-3)Gal(b1-4)GlcNAc(b1-3)Gal(b1-4)[Fuc(a1-3)]GlcNAc
# Procedure, shortened: as §1
# [31] = target: Neu5Ac(a2-3)Gal(b1-4)GlcNAc(b1-3)GalNAc
# Procedure, shortened: as §1
# [32] = target: Neu5Ac(a2-3)Gal(b1-4)GlcNAc(b1-6)[Gal(b1-3)]GalNAc
# Procedure, shortened: as §1
# [33] = target: Neu5Ac(a2-3)Gal(b1-4)GlcNAc(b1-6)[Neu5Ac(a2-3)Gal(b1-3)]GalNAc
# Procedure, shortened: as §1
# [34] = target: Neu5Ac(a2-3)Gal(b1-4)GlcNAc6S
# Procedure, shortened: as §1
# [35] = target: Neu5Ac(a2-3)Gal(b1-4)[Fuc(a1-3)]GlcNAc
# Procedure, shortened: as §1
# [36] = target: Neu5Ac(a2-3)Gal(b1-4)[Fuc(a1-3)]GlcNAc(b1-3)Gal
# Procedure, shortened: as §1
# [37] = target: Neu5Ac(a2-3)Gal(b1-4)[Fuc(a1-3)]GlcNAc(b1-3)Gal(b1-4)GlcNAc
# Procedure, shortened: as §1
# [38] = target: Neu5Ac(a2-3)Gal(b1-4)[Fuc(a1-3)]GlcNAc(b1-3)Gal(b1-4)[Fuc(a1-3)]GlcNAc(b1-3)Gal(b1-4)[Fuc(a1-3)]GlcNAc
# Procedure, shortened: as §1
# [39] = target: Neu5Ac(a2-3)Gal(b1-4)[Fuc(a1-3)]GlcNAc(b1-3)GalNAc
# Procedure, shortened: as §1
# [40] = target: Neu5Ac(a2-3)Gal(b1-4)[Fuc(a1-3)]GlcNAc(b1-6)[Gal(b1-3)]GalNAc
# Procedure, shortened: as §1
# [41] = target: Neu5Ac(a2-3)Gal(b1-4)[Fuc(a1-3)]GlcNAc6S
# Procedure, shortened: as §1
# [42] = target: Neu5Ac(a2-3)Gal6S(b1-4)GlcNAc
# Procedure, shortened: as §1
# [43] = target: Neu5Ac(a2-3)Gal6S(b1-4)[Fuc(a1-3)]GlcNAc
# Procedure, shortened: as §1
# Neu5Ac(a2-3)GalNAc = target: Neu5Ac(a2-3)GalNAc
# Procedure, shortened: as §1
# [44] = target: Neu5Ac(a2-3)GalNAc(b1-4)GlcNAc
# Procedure, shortened: as §1
binder,measurement,setting,value
"RetS (Pseudomonas aeruginosa), Q9HUV7 (protein) MVRLRIAIGLLVSFLLLLLGPMSPAVADDAGVSSVPLQTTATTPSANQNWRLLRDESAQLRIADVLQRKEQFRPLAKRSFIFPASPQAVWLQVQLPAQKVPSWLWIFAPRVQYLDYYLVQDGQLVRDQHTGESRPFQERPLPSRSYLFSLPVDGKPMTLYVRMTSNHPLMAWFDQIDEAGLVGLEKPAYAFGMLLGGMLLLLMYNLIRFAYSRSASSLWLAAVHAALAVCAAANLGLVAFWLPGLKFNQSLTADLGALGAAVSLLWFACSFFRGTAESRLNRLLQGEALLILAVGAIIAFTQQLWFSWLIYLLVILSSLSVPLIAAWHWYRGYQPARLIVAGMIVFNAGFMVFLPVLFGTKQLDPGWLVLGVFSFATLAGLVLSVSLTERQRLIQQLNLQQRTSEAAHTAELQTKAEFLAKISHEIRTPMNGVLGMTELLLGTPLSAKQRDYVQTIHSAGNELLTLINEILDISKLESGQIELDEVQFDLNALIEDCLDIFRVKAEQQRIELISFTQPQVPRVIGGDPTRLRQVVLSLLDNAFKQTEEGEILLVVALDDQGETPRLRIAVQDSGHPFDAKEREALLTAELHSGDFLSASKLGSHLGLIIARQLVRLMGGEFGIQSGSSQGTTLSLTLPLDPQQLENPTADLDGPLQGARLLVVDDNETCRKVLVQQCSGWGLNVSAVSSGKEALAQLRTKAHLREYFDVVLLDQDMPGMTGMQLAAKIKEDPNLNHDILLIMLTGISNAPSKIIARNAGIKRILAKPVAGYTLKATLADELAQRGVSGVTNYLQPAKEAQAPSLPSDFRILVAEDNSISTKVIRGMLNKLNLQPDTASNGQEALSAMKATQYDLVLMDCEMPVLDGFSATEQLRAWEAHEQRPHTPVVALTAHILSEHKERARLVGMDGHMAKPVELSQLRELIAYWVGERDRRRQGDALPS",glycan array binding signal (z-score),[1],0.409
same,glycan array binding signal (z-score),[2],-1.18
same,glycan array binding signal (z-score),[3],-0.927
same,glycan array binding signal (z-score),Man(a1-3)[Man(a1-6)]Man,-1.2
same,glycan array binding signal (z-score),[4],-0.192
same,glycan array binding signal (z-score),[5],0.706
same,glycan array binding signal (z-score),[6],0.027
same,glycan array binding signal (z-score),[7],0.502
same,glycan array binding signal (z-score),Man(a1-6)Man,0.013
same,glycan array binding signal (z-score),Man(b1-4)GlcNAc,-1.04
same,glycan array binding signal (z-score),Neu5Ac(a2-3)Gal,-0.963
same,glycan array binding signal (z-score),[8],-0.269
same,glycan array binding signal (z-score),[9],0.556
same,glycan array binding signal (z-score),[10],0.174
same,glycan array binding signal (z-score),[11],-1.1
same,glycan array binding signal (z-score),[12],-0.232
same,glycan array binding signal (z-score),[13],-0.654
same,glycan array binding signal (z-score),[14],-0.613
same,glycan array binding signal (z-score),[15],-0.057
same,glycan array binding signal (z-score),[16],-0.17
same,glycan array binding signal (z-score),[17],1.92
same,glycan array binding signal (z-score),[18],-1.94
same,glycan array binding signal (z-score),[19],-0.834
same,glycan array binding signal (z-score),[20],0.331
same,glycan array binding signal (z-score),[21],-0.141
same,glycan array binding signal (z-score),[22],1.21
same,glycan array binding signal (z-score),Neu5Ac(a2-3)Gal(b1-4)Glc,-0.669
same,glycan array binding signal (z-score),[23],0.356
same,glycan array binding signal (z-score),[24],-0.478
same,glycan array binding signal (z-score),[25],-0.836
same,glycan array binding signal (z-score),[26],0.901
same,glycan array binding signal (z-score),[27],1.12
same,glycan array binding signal (z-score),[28],-0.976
same,glycan array binding signal (z-score),[29],0.517
same,glycan array binding signal (z-score),[30],-0.543
same,glycan array binding signal (z-score),[31],-0.324
same,glycan array binding signal (z-score),[32],-0.343
same,glycan array binding signal (z-score),[33],-0.192
same,glycan array binding signal (z-score),[34],-0.058
same,glycan array binding signal (z-score),[35],0.567
same,glycan array binding signal (z-score),[36],-0.075
same,glycan array binding signal (z-score),[37],1.76
same,glycan array binding signal (z-score),[38],-0.029
same,glycan array binding signal (z-score),[39],3.56
same,glycan array binding signal (z-score),[40],-0.268
same,glycan array binding signal (z-score),[41],0.709
same,glycan array binding signal (z-score),[42],0.813
same,glycan array binding signal (z-score),[43],-0.246
same,glycan array binding signal (z-score),Neu5Ac(a2-3)GalNAc,-0.712
same,glycan array binding signal (z-score),[44],-0.684

# Quoted at random: three entries already listed, in no set order.
binder,measurement,setting,value
"RetS (Pseudomonas aeruginosa), Q9HUV7 (protein) MVRLRIAIGLLVSFLLLLLGPMSPAVADDAGVSSVPLQTTATTPSANQNWRLLRDESAQLRIADVLQRKEQFRPLAKRSFIFPASPQAVWLQVQLPAQKVPSWLWIFAPRVQYLDYYLVQDGQLVRDQHTGESRPFQERPLPSRSYLFSLPVDGKPMTLYVRMTSNHPLMAWFDQIDEAGLVGLEKPAYAFGMLLGGMLLLLMYNLIRFAYSRSASSLWLAAVHAALAVCAAANLGLVAFWLPGLKFNQSLTADLGALGAAVSLLWFACSFFRGTAESRLNRLLQGEALLILAVGAIIAFTQQLWFSWLIYLLVILSSLSVPLIAAWHWYRGYQPARLIVAGMIVFNAGFMVFLPVLFGTKQLDPGWLVLGVFSFATLAGLVLSVSLTERQRLIQQLNLQQRTSEAAHTAELQTKAEFLAKISHEIRTPMNGVLGMTELLLGTPLSAKQRDYVQTIHSAGNELLTLINEILDISKLESGQIELDEVQFDLNALIEDCLDIFRVKAEQQRIELISFTQPQVPRVIGGDPTRLRQVVLSLLDNAFKQTEEGEILLVVALDDQGETPRLRIAVQDSGHPFDAKEREALLTAELHSGDFLSASKLGSHLGLIIARQLVRLMGGEFGIQSGSSQGTTLSLTLPLDPQQLENPTADLDGPLQGARLLVVDDNETCRKVLVQQCSGWGLNVSAVSSGKEALAQLRTKAHLREYFDVVLLDQDMPGMTGMQLAAKIKEDPNLNHDILLIMLTGISNAPSKIIARNAGIKRILAKPVAGYTLKATLADELAQRGVSGVTNYLQPAKEAQAPSLPSDFRILVAEDNSISTKVIRGMLNKLNLQPDTASNGQEALSAMKATQYDLVLMDCEMPVLDGFSATEQLRAWEAHEQRPHTPVVALTAHILSEHKERARLVGMDGHMAKPVELSQLRELIAYWVGERDRRRQGDALPS",glycan array binding signal (z-score),[20],0.331
same,glycan array binding signal (z-score),[7],0.502
same,glycan array binding signal (z-score),[22],1.21
